In all, about 410,000 compounds went through this assay and about 310 (0.076%) were called active. This list was built around the results that the source calls inconclusive (neither active nor inactive); the mix of calls is not that of the screen. The call rests on the fitted dose curve; in most records, active means well fitted activation curve with a large enough effect; inconclusive means small, poorly fitted or top-dose-only effect, or another doubt; inactive means no such curve, though single readings can be large or run the other way. A potency beside an inconclusive call is a rough fit, not a confirmed value.
Target: Parathyroid hormone/parathyroid hormone-related peptide receptor (Homo sapiens) (UniProt Q03431)
Assay: qHTS for PTHR1 Agonists: Primary Screen; further: nearly all actives have a fitted effect of over 55% in size
Settings: HEK293 GP2 PTHR1 cells, GloSensor cAMP luminescence, 1 h; activation: at 115 µM (top of the series) unless noted; series mostly up to 115 µM
Outline: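 HEK-293-derived GP2 cells expressing PTHR1 and a GloSensor cAMP reporter, 3,000/well, plated overnight, given luciferin plus IBMX (each 0.5 mM as added) for 1 h at 37 °C, then compound for 1 h at 37 °C. Luminescence was read after 15 min at room temperature.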
Potency means the concentration at half of the fitted maximal effect.

By UniProt entry, the sequences of proteins in these tests, tags left out.
UniProt Q03431, whole entry, looked up: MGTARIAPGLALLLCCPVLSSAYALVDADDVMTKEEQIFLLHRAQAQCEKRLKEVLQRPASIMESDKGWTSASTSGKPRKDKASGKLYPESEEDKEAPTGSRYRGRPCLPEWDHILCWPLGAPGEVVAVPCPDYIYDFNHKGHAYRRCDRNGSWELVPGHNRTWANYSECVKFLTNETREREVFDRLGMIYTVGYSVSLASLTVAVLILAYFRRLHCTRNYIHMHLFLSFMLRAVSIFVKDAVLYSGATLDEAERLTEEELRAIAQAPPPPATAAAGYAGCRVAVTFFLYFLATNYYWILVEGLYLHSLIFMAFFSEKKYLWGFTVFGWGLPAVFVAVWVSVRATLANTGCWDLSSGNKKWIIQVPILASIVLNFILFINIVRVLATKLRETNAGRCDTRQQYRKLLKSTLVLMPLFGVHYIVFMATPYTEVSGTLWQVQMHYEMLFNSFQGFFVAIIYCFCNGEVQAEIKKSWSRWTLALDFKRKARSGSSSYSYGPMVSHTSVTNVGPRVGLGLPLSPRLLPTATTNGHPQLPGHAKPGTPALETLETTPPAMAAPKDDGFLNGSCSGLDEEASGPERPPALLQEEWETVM

Structure (SMILES)	Potency	activation
CN(CC(=O)N1CCc2ccccc21)S(=O)(=O)c1ccc(Cl)cc1	inactive	–
O=S(=O)(c1ccc(Br)cc1)c1nnn2c1nc(Nc1cccc(C(F)(F)F)c1)c1sccc12	inconclusive: 17.8 µM [activator, partial curve, poor fit]	–
Cc1cc(C)n2nc(SCC(=O)c3ccc[nH]3)nc2n1	inconclusive: 8.91 µM [activator, full curve, poor fit]	–
CCN(CC)CCN(C(=O)c1ccc(S(=O)(=O)N2CCCCC2)cc1)c1nc2cc3c(cc2s1)OCO3	inactive	–
CCCCOc1ccc(C(=O)OCC(=O)Nc2cc(C)on2)cc1	inconclusive: 25.1 µM [activator, partial curve, poor fit]	–
O=C(O)COc1ccccc1/C=N/NC(=O)c1cc2ccccc2cc1O	active: 25.1 µM	–
O=C(CSc1ccc2c(c1)OCCO2)Nc1ncccc1O	inactive	–
O=C(NNc1cccc(Cl)c1)c1cccnc1Cl	inactive	–
COc1ccc(/C=C/C(=O)N2CCCC2)cc1OC	inconclusive: 4.47 µM [activator, full curve, poor fit]	–
CC1CCCCN1CCCNC(=O)C1CCN(c2nnc(-n3cccc3)s2)CC1 (centres undefined)	inconclusive: 56.2 µM [activator, partial curve, poor fit]	–
Cc1cccc(N(CC(N)=O)C2SC(=O)N(c3ccccc3)C2=O)c1 (centres undefined)	inconclusive: 25.1 µM [activator, full curve, poor fit]	–
COc1ccc2c(c1)C(C)=CC(C)(C)N2S(=O)(=O)c1ccc(NC(C)=O)cc1	inconclusive: 14.1 µM [activator, partial curve, poor fit]	–
CCOCc1nnc(NC(C)=O)s1	inconclusive: 39.8 µM [activator, single point]	–
Cn1c(=O)c2c(nc(Oc3ccc(C#N)cc3)n2Cc2ccc(Cl)cc2Cl)n(C)c1=O	inconclusive: 44.7 µM [activator, single point]	–
Cc1ccccc1NC(=O)Cn1c(=O)n(CCCCCC(=O)NCc2ccccc2Cl)c(=O)c2sccc21	inconclusive: 112 µM [activator, single point]	–
COc1ccc(CNC(=O)COC(=O)Cc2ccc(Cl)cc2Cl)cc1	inconclusive: 31.6 µM [activator, single point]	–
O=C(Cc1cccs1)Nc1nc(-c2ccc(F)cc2F)cs1	inconclusive: 3.98 µM [activator, full curve, poor fit]	–
CCNc1nc(N)nc(Oc2ccc(OCC(=O)OC)nn2)n1	–	inconclusive: 34.9% [activator]
CCOc1ccc(-c2nc(CNC(=O)NC3CCCCC3)c(C)o2)cc1	inactive	–
c1ccc(Oc2ccc(-c3ccn[nH]3)cc2)cc1	inactive	–
O=C(NCc1ccco1)C1CC2CCC1C2 (centres undefined)	inconclusive: 6.31 µM [activator, full curve, poor fit]	–
CCC(COC)NCc1cn(-c2ccc(F)cc2F)nc1-c1ccccc1C (centres undefined)	inconclusive: 126 µM [activator, single point]	–
Cc1c(NC(=S)NC(=O)c2ccco2)c(=O)n(-c2ccccc2)n1C	–	inconclusive: 16.2% [activator]

Structure (SMILES)	Potency	activation
Cn1c(=O)c2c(nc(SCC(=O)NCc3ccco3)n2C)n(C)c1=O	inconclusive: 2.51 µM [activator, full curve]	–
O=C(COC(=O)CCc1nc2ccccc2c(=O)[nH]1)Nc1ccccc1OC(F)F	–	inconclusive: 46.1% [activator]
CCCCCC[n+]1c(-c2ccccc2)csc1Nc1ccccc1	inactive	–
O=C(Nc1ccc(Cl)cc1)OCc1cncs1	inactive	–
COCCCNC(=O)c1[nH]c2cc(OC)ccc2c1Sc1ccc(C)cc1	inconclusive: 141 µM [activator, single point]	–
NC(=O)NC(=O)CSc1nc2cc([N+](=O)[O-])ccc2n1-c1cccc(C(F)(F)F)c1	–	inconclusive: -26.4% [activator]
Cc1ccccc1CNC(=O)c1ccccc1NC(=O)c1nsc2ccccc12	inconclusive: 44.7 µM [activator, partial curve, poor fit]	–
Cn1c(SCc2cccc(F)c2)nc2c([nH]c3ccccc32)c1=O	inconclusive: 158 µM [activator, single point]	–
COc1ccc(Cn2c(=O)[nH]c3cc(C(=O)N4CCN(c5ccccc5)CC4)ccc3c2=O)cc1	inconclusive: 10 µM [activator, partial curve, poor fit]	–
CCCCc1nc(NCCNC(=O)c2ccco2)c(C#N)c2c1CSC(C)(C)C2	inactive	–
NNC(=O)c1ccc(COc2ccc(Br)cc2)o1	inconclusive: 126 µM [activator, single point]	–
Cc1ccc(N2CCN(S(=O)(=O)c3ccc4oc(=O)c5ncn(C)c5c4c3)CC2)c(C)c1	inconclusive: 126 µM [activator, single point]	–
CCCCCCCCCCCCCCCC(=O)NCCO	inconclusive: 8.91 µM [activator, partial curve, poor fit]	–
O=C(NCc1ccc(F)cc1)c1cc(C2CCCN(C(=O)c3cccs3)C2)on1 (centres undefined)	inconclusive: 44.7 µM [activator, partial curve, poor fit]	–
CCOC(=O)c1cnc(-n2nc(C)cc2C)nc1NCCO	inactive	–
Cc1ccc(Sc2ccc(NC(=O)CCN3C(=O)NC4(CCCC4)C3=O)cc2)c(C)c1	inactive	–
CCCCCn1c(=O)c2ccccc2n2c(CCl)nnc12	inactive	–
O=C(O)CC(NS(=O)(=O)c1ccc(Br)s1)c1ccccc1 (centres undefined)	–	inconclusive: 47.9% [activator]
CC(=O)Nc1ccc(SCC(=O)NCCc2ccc(F)cc2)cc1	–	inconclusive: -25.9% [activator]
CC(=O)Nc1ccc(S(=O)(=O)N2CCC(NC(=O)C(Cc3ccc(C)cc3)NC(C)=O)CC2)cc1 (centres undefined)	inconclusive: 0.767 µM [activator, full curve, poor fit]	–
O=C(C1CCCO1)N1CCN(C(=S)Nc2ccc(Cl)c(Cl)c2)CC1 (centres undefined)	–	inconclusive: -43.1% [activator]
COc1ccc(-c2cc(C(F)(F)F)n3nc(C(=O)O)c(Cl)c3n2)cc1OC	–	inconclusive: 40.8% [activator]
CCc1nc(C)cc2c1sc1ccccc12	inconclusive: 89.1 µM [activator, single point]	–

Random excerpt: five entries already listed, in no set order.
Structure (SMILES)	Potency	activation
COc1ccc2c(c1)C(C)=CC(C)(C)N2S(=O)(=O)c1ccc(NC(C)=O)cc1	inconclusive: 14.1 µM [activator, partial curve, poor fit]	–
CN(CC(=O)N1CCc2ccccc21)S(=O)(=O)c1ccc(Cl)cc1	inactive	–
CCCCCCCCCCCCCCCC(=O)NCCO	inconclusive: 8.91 µM [activator, partial curve, poor fit]	–
CCOCc1nnc(NC(C)=O)s1	inconclusive: 39.8 µM [activator, single point]	–
CCc1nc(C)cc2c1sc1ccccc12	inconclusive: 89.1 µM [activator, single point]	–

Later entries

Structure (SMILES)	Potency	activation
O=C(Nc1cccc(C(F)(F)F)c1)C1C2CC3OC(=O)C1C3C2 (centres undefined)	inconclusive: 39.8 µM [activator, single point]	–
C[C@@H]1O[C@H](C2CCCC2)Cc2[nH]c(=S)[nH]c(=O)c21	–	inconclusive: 32.3% [activator]
O=C1NC(=O)/C(=C\c2ccc(Cl)nc2)S1	inactive	–
COc1ccc(C(=O)c2ccc(Cl)cc2)c2ccccc12	inactive	–
COc1cccc(CN(C)Cc2nc(C3CC3)no2)c1	inconclusive: 79.4 µM [activator, partial curve, poor fit]	–
CCN(CC)CCNC(=O)NC(=O)c1ccc(Cl)cc1	inconclusive: 44.7 µM [activator, partial curve, poor fit]	–
Cc1cc(C)n(-c2nc3ccccc3nc2Nc2cccc(C(=O)NCCc3ccccc3)c2)n1	inconclusive: 63.1 µM [activator, partial curve, poor fit]	–
Nc1ccc2nc(CCCCCCCCc3nc4ccc(N)cc4[nH]3)[nH]c2c1	inconclusive: 17.8 µM [activator, partial curve, poor fit]	–
CCOC(=O)c1ccc(NC(=O)C2Cc3ccccc3C(=O)O2)cc1 (centres undefined)	inactive	–
O=C(CCCCCN1C(=O)c2cccc([N+](=O)[O-])c2C1=O)NCCc1ccccc1	inconclusive: 15.8 µM [activator, partial curve]	–
COc1ccc(S(=O)(=O)NCc2ccccn2)cc1NC(=O)c1ccccc1F	inconclusive: 50.1 µM [activator, single point]	–
Cc1c(O)c(CN2CCCC2)cc2c1oc(=O)c1ccccc12	inconclusive: 39.8 µM [activator, single point]	–
COc1ccccc1Cc1c(-c2cccc(Br)c2)nc2c(C)cc(Br)cn12	inactive	–
Nc1nncn1C(=O)c1cc(Br)ccc1Cl	inconclusive: 15.8 µM [activator, partial curve, poor fit]	–
COc1ccc2ccc(OC)c(/C=N/NC(=O)c3cc4ccccc4o3)c2c1	inactive	–
Cc1cc(C)nc(SCc2cc(=O)c(OC(=O)c3ccc(Br)o3)co2)n1	inconclusive: 126 µM [activator, single point]	–
O=c1oc2ccccc2c2c1ncn2CCN1CCOCC1	inconclusive: 126 µM [activator, single point]	–
NS(=O)(=O)c1ccc(CCNC(=O)c2ccncc2)cc1	inconclusive: 126 µM [activator, single point]	–
CCOc1ccc(-n2c(-c3ccccc3)nnc2-c2ccccc2)cc1	inconclusive: 31.6 µM [activator, single point]	–
O=c1cc(N2CCc3ccccc3C2)[nH]c(=O)n1Cc1ccc(F)cc1	inconclusive: 35.5 µM [activator, single point]	–
COc1ccc(S(=O)(=O)N(C)CC(=O)Nc2ccc(C(F)(F)F)cc2)cc1Cl	inconclusive: 31.6 µM [activator, partial curve, poor fit]	–
CCOc1ccccc1NC(=O)C(NC(=O)C1CCC(C)CC1)C(C)C (centres undefined)	–	inconclusive: 32.1% [activator]
Cc1ccc(OCC(=O)NNC(=O)C2CCC2)cc1C	inconclusive: 126 µM [activator, single point]	–

— PubChem BioAssay AID743266 (National Center for Advancing Translational Sciences (NCATS), 2014)
